The results in this text go back to PubChem BioAssay AID493014 (National Center for Advancing Translational Sciences (NCATS), 2011).

This is one part of the list. Shown are side measurements of this screen, not its main read-out; they come without a call. The list favours compounds with an active or inconclusive main result. Potencies come from curve fits of mixed quality, noted in brackets.

The nature of this assay: qHTS Assay to Find Inhibitors of Chronic Active B-Cell Receptor Signaling. Conditions: ABC-DLBCL IkBa-CBG/CBR reporter, luminescence ratio (green luciferase fused to IkBa over red control in TMD8 lymphoma cells), 4 h; measured here: CBR red luminescence, cell number. The gist of the method: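 Concentration-response series (up to 46 uM) were applied to TMD8 dual-reporter cells for 4 h at 37C with doxycycline. Green/red ratio, after filter-overlap correction, defined %Activity; red signal alone was normalised to basal cells and zero luminescence.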
(In general: qHTS replaces the single test concentration by a dilution series.)
In the case of `Cc1ccc(NC(=O)c2ccccc2OCC(=O)c2ccccc2)cc1`, the AC50 is 5.17 µM [falling, full curve, poor fit].

Turning to `S=C1NC(c2ccccc2)=NCN1c1ccc(Br)cc1`, the half-maximal activity concentration (AC50) was 0.92 µM [rising, full curve, poor fit].

Consider `CCCSc1nnc(CNC(=O)C23CC4CC(CC(C4)C2)C3)n1Cc1ccccc1`, for which the AC50 is 29.1 µM [falling, single point].

For `O=C(C1CC(c2ccccc2O)=NO1)N1CCc2ccccc2C1` (stereo not given), the AC50 was 7.31 µM [falling, partial curve, poor fit].

On to `Cc1nc2ccccc2nc(=O)c1NNc1ccccc1`, for which the AC50 is 2.06 µM [falling, full curve].

With `Oc1ccc2ccccc2c1N=Nc1ccccn1`, the AC50 is 3.98 µM [rising, full curve, poor fit].

Consider `O=C(CCN1C(=O)C2CCCCC2C1=O)N1CCN(S(=O)(=O)c2c(F)cccc2F)CC1` (stereo not given), for which the concentration at half-maximal activity (AC50) was 1.46 µM [rising, full curve, poor fit].

On to `COc1ccc(CSCC(=O)NN=C2CCN(C)CC2)cc1`, for which the AC50 is 14.1 µM [rising, partial curve, poor fit].

Take `COc1ccc(Cn2c(O)c(C=Nc3ccccc3C(=O)O)c3ccccc3c2=O)cc1`: the AC50 is 6.31 µM [falling, partial curve, poor fit].

Take `Cc1cc(C(=O)Nc2ccccc2)oc(=O)c1`: the AC50 was 14.1 µM [falling, single point].

For `O=C1NCN(c2ccccc2)C12CCN(CCCC(c1ccc(F)cc1)c1ccc(F)cc1)CC2`, the half-maximal activity concentration (AC50) was 17.8 µM [falling, single point].

`CN(C)CCN1CC(O)=C(c2nc3ccccc3s2)C1=N`: the AC50 was 0.631 µM [rising, full curve, poor fit].

For the molecule `O=C(CSc1nc2ccccc2c(=O)n1-c1ccccc1)NCC1CCCO1` (stereo not given), the AC50 was 6.31 µM [rising, full curve, poor fit].

Consider `CC(C)C1NC(C(=O)O)Cc2c1[nH]c1ccccc21` (stereo not given), for which the AC50 was 35.5 µM [falling, single point].

Regarding `O=S(=O)(c1ccccc1)N1CCSC1c1ccco1` (stereo not given), the half-maximal activity concentration (AC50) was 6.51 µM [falling, single point].

For `CC(C)OCCCn1c(=NC(=O)c2cccs2)c(C#N)cc2c(=O)n3ccccc3nc21`, the AC50 was 14.1 µM [falling, single point].

Consider `O=C(c1cccc(C(=O)N2CCN(c3ccccc3F)CC2)c1)N1CCN(c2ccccc2F)CC1`, for which the AC50 was 29.1 µM [rising, single point].

As to `O=C(CCC1N=C2c3ccccc3N=C(SCc3ccc(F)cc3)N2C1=O)NCCc1ccccc1` (stereo not given), the AC50 is 12.6 µM [falling, single point].

As to `Cc1ccc(C(=O)N/N=c2\sc3ccccc3n2C)cc1`, the AC50 was 5.17 µM [falling, partial curve, poor fit].

`CCOC(=O)C1(Cc2cccc(Cl)c2)CCCN(C(=O)CCOC)C1` (stereo not given): the concentration at half-maximal activity (AC50) was 0.447 µM [rising, full curve, poor fit].

For `CC12Cc3ccc4ccccc4c3C=C1C[N+](C)(C)C2` (stereo not given), the AC50 was 0.651 µM [falling, full curve].

For the molecule `Cc1cc(C)nc(NC(=O)CCC2CCCC2)c1`, the concentration at half-maximal activity (AC50) is 14.6 µM [falling, single point].

For the molecule `Nc1cccc2c1C(=O)N(C(=O)/C=C/c1cccc(Br)c1)C2=O`, the AC50 is 35.5 µM [falling, single point].

`CC(C)NC(=S)N/N=C/c1sc(N2CCCCC2)nc1-c1cccs1`: the half-maximal activity concentration (AC50) is 6.51 µM [rising, single point].

On to `Cc1ccc2ncnc(NCCCCCC(=O)O)c2c1`, for which the AC50 is 31.6 µM [rising, single point].

With `CN(Cc1ccccc1)C(=O)c1c[nH]c2ccc(S(=O)(=O)N3CCOCC3)cc2c1=O`, the AC50 is 29.1 µM [rising, single point].

Consider `CCOc1cc(C(=O)OC(C(=O)NC(=O)NC)c2ccccc2)ccc1OCC(=O)N1CCOCC1` (stereo not given), for which the AC50 is 5.8 µM [rising, full curve, poor fit].

`COc1ccc(OC)c(C2=NOC(C(=O)N3CCN(c4ccccc4)CC3)C2)c1` (stereo not given): the AC50 was 29.1 µM [rising, partial curve, poor fit].

`CCOC(=O)c1c(NC(=O)CN2C(=O)NC(C)(c3ccc(OC(F)F)cc3)C2=O)sc(C)c1C` (stereo not given): the half-maximal activity concentration (AC50) was 14.6 µM [falling, single point].

With `CCOC(=O)N=S(=O)(Oc1ccc([N+](=O)[O-])cc1)c1ccc(Cl)cc1` (stereo not given), the AC50 is 29.1 µM [falling, single point].

As for `COc1ccc2oc(=O)c(C(=O)N3CCN(c4ccccc4)CC3)cc2c1`, the half-maximal activity concentration (AC50) was 8.91 µM [rising, partial curve, poor fit].

Regarding `CCN1C(=O)C2CCCCN2c2ccc(C(=O)NCCOC)cc21` (stereo not given), the half-maximal activity concentration (AC50) was 35.5 µM [rising, single point].

Regarding `CCCCNC(=O)CSc1nc2n[nH]c(C)c2c(=N)n1-c1cccc(Cl)c1C`, the AC50 was 5.01 µM [falling, partial curve, poor fit].

As to `CCCc1c(O)c2ccccc2n(-c2ccccc2)c1=O`, the AC50 is 11.2 µM [rising, partial curve, poor fit].

With `N#Cc1c(N)nc(SCC(=O)NCc2ccc3c(c2)OCO3)c(C#N)c1-c1cccs1`, the AC50 was 15.8 µM [falling, single point].

As to `O=C(O)CCCCCN=Cc1c(O)c2ccccc2oc1=O`, the concentration at half-maximal activity (AC50) is 0.447 µM [falling, full curve, poor fit].

In the case of `Cn1c(=O)[nH]c(=O)c2c1nc(Sc1ccccc1)n2CCc1ccccc1`, the AC50 is 5.17 µM [falling, full curve].

Take `NC(=O)C1CCN(c2nc(-c3ccccc3F)cs2)CC1`: the AC50 is 3.26 µM [rising, single point].

As to `O=C(/C=C/c1cccnc1)/C=C/c1cccnc1`, the AC50 is 3.55 µM [falling, full curve, poor fit].

Consider `COc1ccc(NC(=S)/N=C(\N)Nc2nc(C)c3ccc(C)cc3n2)cc1`, for which the concentration at half-maximal activity (AC50) is 7.94 µM [falling, partial curve].

With `C/C(Nc1ccc(C)cc1)=C(/C#N)C(N)=O`, the AC50 is 2.59 µM [rising, partial curve].

On to `O=C(CCN1C(=O)/C(=C/c2ccc(F)cc2)SC1=S)N[C@@H](CO)Cc1ccccc1`, for which the concentration at half-maximal activity (AC50) was 4.47 µM [falling, partial curve, poor fit].

For `O=C1c2ccccc2C(=O)N1CCc1nc(-c2ccc(Cl)cc2)no1`, the concentration at half-maximal activity (AC50) is 29.1 µM [rising, single point].

As to `Cn1c(CNC(=O)c2ccccc2F)nnc1SCC(=O)NCc1ccccc1`, the concentration at half-maximal activity (AC50) was 28.2 µM [rising, single point].

Turning to `CSc1ccc(-c2nc(CN(C)C3CCOC3)c(C)o2)cc1` (stereo not given), the half-maximal activity concentration (AC50) was 11.2 µM [rising, partial curve].

As for `COc1cc(OC)cc(N2C(=O)N(Cc3ccc(C(C)(C)C)cc3)c3ccccc3S2(=O)=O)c1`, the concentration at half-maximal activity (AC50) is 1.41 µM [rising, full curve].

For `COC(=O)c1ccccc1OCCOCCOc1cccc2cccnc12`, the half-maximal activity concentration (AC50) was 25.9 µM [falling, single point].

As to `O=C(NCCC1=CCCCC1)c1cc(-c2ccncc2)nc2ccccc12`, the AC50 is 4.47 µM [rising, single point].

On to `O=C(NNC(=S)NC(=O)c1cccs1)c1cccnc1`, for which the AC50 was 8.91 µM [falling, partial curve, poor fit].

With `COCc1ccc(C(=O)N2CCCC(CCC(=O)NCc3ccccc3F)C2)o1` (stereo not given), the AC50 was 0.631 µM [rising, full curve, poor fit].

As to `COCCn1c(-c2ccc(OC)cc2)nc2ccccc21`, the AC50 is 5.17 µM [falling, single point].

For the molecule `O=C(CSC1CS(=O)(=O)c2cc([N+](=O)[O-])ccc21)NNC(=O)c1ccc(Cl)cc1` (stereo not given), the half-maximal activity concentration (AC50) is 11.2 µM [falling, partial curve].

Turning to `COc1ccc(NC(=O)CSc2nnc(CNC(=O)c3ccco3)n2-c2ccccc2OC)cc1`, the AC50 was 7.08 µM [falling, partial curve, poor fit].

Consider `CSc1nnc2c3ccccc3n(CCc3ccccc3)c2n1`, for which the AC50 is 11.2 µM [falling, partial curve, poor fit].

As to `CCCCOc1ccc(C(=O)N/N=C/c2cn[nH]c2-c2ccc(OC)c(OC)c2)cc1`, the half-maximal activity concentration (AC50) was 18.4 µM [falling, single point].

Regarding `Cc1cc(Nc2ccc(Cl)cc2)nc(-c2ccccc2O)n1`, the concentration at half-maximal activity (AC50) was 7.08 µM [rising, full curve].

`CCC(Oc1ccc(Br)cc1)C(=O)N1CCN(c2ncccn2)CC1` (stereo not given): the AC50 was 15.8 µM [falling, single point].

With `CCOC(=O)c1cc(NC(=O)CCC(=O)O)ccc1N1CCCCC1`, the AC50 was 35.5 µM [rising, single point].

As to `COc1ccc(C(=O)Cc2cnn(-c3ccccc3)c2)c(O)c1`, the concentration at half-maximal activity (AC50) is 5.8 µM [rising, full curve, poor fit].

In the case of `Cc1cc(C(=O)OCC(=O)Nc2ccccc2F)c(C)o1`, the AC50 is 14.1 µM [falling, partial curve, poor fit].

For the molecule `COc1ccc(CN(C)C(=O)c2ccc(OCC(=O)Nc3cccc(C(F)(F)F)c3)c(OC)c2)c(OC)c1`, the AC50 is 29.1 µM [falling, partial curve, poor fit].

As to `O=C(O)/C=C/c1cn(-c2ccccc2)nc1-c1cc2ccccc2o1`, the AC50 was 0.158 µM [rising, full curve, poor fit].

Turning to `CCn1c2ccccc2c2cc(CC(N)=O)ccc21`, the half-maximal activity concentration (AC50) was 25.1 µM [falling, single point].

For the molecule `CC(C)(O)c1[nH]c2cc(C(F)(F)F)ccc2c1C(C)(C)O`, the concentration at half-maximal activity (AC50) is 11.2 µM [rising, partial curve, poor fit].

With `CCCCCc1ccc(OCCOCCn2c[n+](C)c3ccccc32)c(CCCCC)c1`, the AC50 was 20 µM [falling, partial curve, poor fit].

As a reminder, the AC50 is the midpoint of the concentration-response curve, whichever way the signal moves.
